# Results are given in words; binding and its absence hold for the method and conditions named. Binding seen in cells or lysates may run through a third protein. Some binding calls cover weakened binding; strength is not graded here.
# Chains of the proteins cited; added tags and fusions are not shown.
# UniProt Q9HVV4: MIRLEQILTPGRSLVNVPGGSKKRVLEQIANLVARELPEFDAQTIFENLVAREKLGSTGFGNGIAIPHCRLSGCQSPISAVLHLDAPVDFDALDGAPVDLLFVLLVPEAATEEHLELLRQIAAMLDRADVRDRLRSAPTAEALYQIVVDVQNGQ
# UniProt Q9HWS2: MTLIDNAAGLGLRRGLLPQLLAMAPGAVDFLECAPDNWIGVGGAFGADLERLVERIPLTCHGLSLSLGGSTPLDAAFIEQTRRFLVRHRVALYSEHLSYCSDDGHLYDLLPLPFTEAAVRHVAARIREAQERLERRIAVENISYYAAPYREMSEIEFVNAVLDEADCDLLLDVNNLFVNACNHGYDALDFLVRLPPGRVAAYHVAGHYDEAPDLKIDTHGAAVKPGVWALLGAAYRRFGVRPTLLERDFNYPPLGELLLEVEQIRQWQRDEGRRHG
# UniProt Q9HVV2: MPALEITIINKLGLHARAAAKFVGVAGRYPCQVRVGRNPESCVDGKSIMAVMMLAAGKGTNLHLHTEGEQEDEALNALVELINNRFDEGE
# UniProt P72139: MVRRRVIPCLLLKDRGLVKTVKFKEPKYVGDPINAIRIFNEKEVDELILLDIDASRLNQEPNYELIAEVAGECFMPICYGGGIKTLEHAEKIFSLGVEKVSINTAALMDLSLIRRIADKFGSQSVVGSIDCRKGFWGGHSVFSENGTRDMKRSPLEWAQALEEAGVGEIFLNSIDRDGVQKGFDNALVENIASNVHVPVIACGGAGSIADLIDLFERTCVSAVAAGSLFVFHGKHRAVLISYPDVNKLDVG
# T1: protein of unknown function YcaR (E. coli) (UniProt P0AAZ7)
# T1 sequence: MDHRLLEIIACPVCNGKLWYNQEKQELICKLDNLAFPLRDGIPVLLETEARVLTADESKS
# How the values were obtained:
# Assay in all cases: co-IP + pull-down
# [1] = target: PtsN, nitrogen regulatory protein with a phosphotransferase component (UniProt Q9HVV4)
# [2] = target: LPS biosynthesis protein WbpG (P. aeruginosa) (UniProt Q9HZ78)
# [3] = target: Uncharacterized protein PA4106 (P. aeruginosa) (UniProt Q9HWS2)
# [4] = target: T1, protein of unknown function YcaR (E. coli)
molecule,measurement,setting,value
"PtsH, histidine-phosphorylatable phosphocarrier protein (from UniProt Q9HVV2 1-90)",binding,[1],no binding
Putative imidazole glycerol phosphate synthase subunit hisF2 (from UniProt P72139 1-251),binding,[2],binds
putative transcriptional factor PA4105 (from UniProt Q9HWS3 1-251),binding,[3],binds
"Ubiquinone biosynthesis C-methyltransferase UbiE (protein, UniProt P0A887 1-251) MVDKSQETTHFGFQTVAKEQKADMVAHVFHSVASKYDVMNDLMSFGIHRLWKRFTIDCSGVRRGQTVLDLAGGTGDLTAKFSRLVGETGKVVLADINESMLKMGREKLRNIGVIGNVEYVQANAEALPFPDNTFDCITISFGLRNVTDKDKALRSMYRVLKPGGRLLVLEFSKPIIEPLSKAYDAYSFHVLPRIGSLVANDADSYRYLAESIRMHPDQDTLKAMMQDAGFESVDYYNLTAGVVALHRGYKF",binding,[4],binds

# Reference: doi:10.1101/2024.04.12.589144
